Experimental findings from publication PMC8862343 are described below.

Protein sequences, listed by entry. Tags and fused reporters are not part of them. Residues count along the entry.
UniProt P17301, residues 30-1181: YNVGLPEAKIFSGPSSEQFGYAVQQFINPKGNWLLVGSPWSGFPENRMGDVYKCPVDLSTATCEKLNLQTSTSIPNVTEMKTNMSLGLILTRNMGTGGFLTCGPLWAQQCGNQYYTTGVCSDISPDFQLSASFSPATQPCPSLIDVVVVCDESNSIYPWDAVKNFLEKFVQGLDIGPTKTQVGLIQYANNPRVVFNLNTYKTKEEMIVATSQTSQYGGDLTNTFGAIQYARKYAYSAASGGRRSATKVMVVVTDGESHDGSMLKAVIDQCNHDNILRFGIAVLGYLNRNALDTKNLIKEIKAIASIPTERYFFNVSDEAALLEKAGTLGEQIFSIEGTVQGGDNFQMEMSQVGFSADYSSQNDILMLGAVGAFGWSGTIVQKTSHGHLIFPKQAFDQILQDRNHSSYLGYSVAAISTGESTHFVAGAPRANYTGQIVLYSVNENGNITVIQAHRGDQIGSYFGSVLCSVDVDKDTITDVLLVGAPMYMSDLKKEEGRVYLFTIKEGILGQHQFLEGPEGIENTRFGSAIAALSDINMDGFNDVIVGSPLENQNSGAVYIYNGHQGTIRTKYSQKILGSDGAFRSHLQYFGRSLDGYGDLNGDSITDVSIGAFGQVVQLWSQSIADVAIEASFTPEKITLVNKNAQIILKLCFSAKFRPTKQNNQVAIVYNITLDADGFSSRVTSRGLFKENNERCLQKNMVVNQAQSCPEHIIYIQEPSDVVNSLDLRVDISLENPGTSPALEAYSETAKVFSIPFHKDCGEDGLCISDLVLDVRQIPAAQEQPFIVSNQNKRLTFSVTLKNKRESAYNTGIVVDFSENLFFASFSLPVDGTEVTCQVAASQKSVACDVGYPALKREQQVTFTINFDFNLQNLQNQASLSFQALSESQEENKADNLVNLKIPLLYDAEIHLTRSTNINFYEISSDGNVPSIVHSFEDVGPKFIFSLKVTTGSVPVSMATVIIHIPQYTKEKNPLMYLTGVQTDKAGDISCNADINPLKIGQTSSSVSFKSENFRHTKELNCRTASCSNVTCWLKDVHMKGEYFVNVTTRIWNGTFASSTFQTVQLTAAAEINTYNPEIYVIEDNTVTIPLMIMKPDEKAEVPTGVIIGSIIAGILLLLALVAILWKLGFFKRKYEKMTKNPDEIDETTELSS

These are yes or no findings as the source states them, for the method shown. Binding seen in cells or lysates may run through a third protein. A yes stands for co-enrichment or nearness to the bait. Other partners may have been found.

This test deals with Integrin alpha 2 (human (endogenous in PANC-1 and AsPC-1)) (UniProt P17301). As to the kind of experiment: affinity purification with mass spectrometry; immunoprecipitation followed by LC-MS/MS (Q Exactive Plus, MaxQuant, FDR 1%); TFCP2 peptides detected with ITGA2; the methods paragraph names Flag-PTEN in 293T cells, not ITGA2.

B1: Transcription factor CP2 (protein, UniProt Q12800 1-502)
chain: MAWALKLPLADEVIESGLVQDFDASLSGIGQELGAGAYSMSDVLALPIFKQEESSLPPDNENKILPFQYVLCAATSPAVKLHDETLTYLNQGQSYEIRMLDNRKLGELPEINGKLVKSIFRVVFHDRRLQYTEHQQLEGWRWNRPGDRILDIDIPMSVGIIDPRANPTQLNTVEFLWDPAKRTSVFIQVHCISTEFTMRKHGGEKGVPFRVQIDTFKENENGEYTEHLHSASCQIKVFKPKGADRKQKTDREKMEKRTPHEKEKYQPSYETTILTECSPWPEITYVNNSPSPGFNSSHSSFSLGEGNGSPNHQPEPPPPVTDNLLPTTTPQEAQQWLHRNRFSTFTRLFTNFSGADLLKLTRDDVIQICGPADGIRLFNALKGRMVRPRLTIYVCQESLQLREQQQQQQQQQQKHEDGDSNGTFFVYHAIYLEELTAVELTEKIAQLFSISPCQISQIYKQGPTGIHVLISDEMIQNFQEEACFILDTMKAETNDSYHIILK
As for B1, the binding result was “binds”.
